Experimental data published in US11673866B2, “Estrogen receptor beta ligands for the prevention and treatment of multiple sclerosis (MS) and other demyelinating, inflammatory and neurodegenerative diseases” (The Board of Trustees of the University of Illinois, priority 2018, dated 2023).
“Also recorded” adds a separate entry of the source. At least one structure is not confirmed: it was looked up by name or label, or the drawing left a doubt.

Tests used:
Type in all cases: in vivo, mouse
[1] = system: MOG35-55-stimulated splenocytes; assay: Cytokine and chemokine production by splenocytes from EAE mice (Luminex); conditions: day 21, vs vehicle
Protocol: Splenocyte Isolation & Cytokine Analysis: On day 20-21 after induction of EAE, spleens were harvested prior to transcardial perfusion. Spleens were dissected from anesthetized mice and mechanically dissociated into a single cell suspension in cold RPMI 1640 supplemented with pyruvate, L-glutamine, and 10% fetal bovine serum (henceforth referred to as RPMI). Red blood cells were lysed by incubation with ACK buffer (VWR), washed, counted, and resuspended in RPMI for cytokine analysis. Splenocytes were then stimulated with 25 μg/ml MOG35-55 and supernatants were collected 48 hours later (Khalaj et al., 2013; Moore et al., 2013). Levels of the anti-inflammatory cytokines: IL-10, IL-13, IL-4 and IL-5; pro-inflammatory cytokines IFNγ, IL-17, IL-1β TNFα, IL-6 and IL-2; and chemokines: CXCL1, CXCL10 were determined by Cytokine Mouse Magnetic Panel for Luminex (Thermo Fisher Scientific; Waltham, Mass.) and run on the xMAP MAGPIX 100™ instrument (Luminex Corporation, Austin, Tx) according to manufacturer's instructions.
During MS and EAE, peripherally activated leukocytes secrete inflammatory cytokines and chemokines as they migrate into the CNS, where they contribute to demyelination and axon damage (Fletcher et al., 2010). To characterize the effects of IndCl analogues on the peripheral immune response, splenocytes were isolated from mice 21 days post-immunization and stimulated ex vivo with MOG35-55 peptide for cytokine and chemokine analysis using a magnetic bead-based 20-plex cytokine/chemokine detection assay. Cytokines related to inflammation, CD4+ T cell polarization, immune regulation, and chemokines associated with OL apoptosis and myelination that were measured in collected supernatants are presented below.

[2] = system: CD45+ leukocyte, Iba1+ macrophage/microglia, GFAP+ astrocytes; assay: CD45, Iba1 and GFAP staining in thoracic spinal cord dorsal column of EAE mice; conditions: vs vehicle
Description: (§1) Immunohistochemistry: Before histological staining, 40-μm free floating sections were thoroughly washed with PBS to remove residual sodium azide (Crawford et al., 2010). Sections were permeabilized with 0.3% Triton X-100 in ix PBS and 15% normal goat serum (NGS). Myelination, gliosis and immune markers were visualized by the following primary antibodies at a concentration of 1:500 unless otherwise noted: chicken anti-myelin basic protein (MBP; polyclonal, EMD Millipore, Darmstadt, Germany), chicken anti-glial fibrillary acidic protein (GFAP; EMD Millipore, Darmstadt), rat anti-cluster of differentiation 45 (CD45; clone 30-F11, BD Biosciences, San Diego, Calif.), mouse anti-ionized calcium-binding adapter molecule 1/allograft inflammatory factor-1 (Iba1/AIF1; clone 20A12.1, EMD Millipore, Darmstadt, Germany), goat anti-CXCL1 (R&D systems; Minneapolis, Minn.) at 1:250 and mouse anti-adenomatous polyposis coli (CC-1; clone CC-1, Genetex, Irvine, Calif.). Secondary staining was performed using polyclonal fluorophore-conjugated antibodies from ThermoFisher Scientific at a concentration of 1:500 unless otherwise specified: goat anti-chicken Alexa Fluor® 555 (AF555), goat anti-rabbit Alexa Fluor® 647 (AF647), donkey anti-chicken IgY Cy3 (EMD Millipore), goat anti-rat IgG AF647, goat anti-rabbit IgG Cy3 (EMD Millipore), goat anti-mouse IgG2b AF647 and rabbit anti-goat AF647. Nuclei were counter stained with 4′,6-Diamidino-2-phenylindole (DAPI, 2 ng/ml; Molecular Probes) for 10 minutes after incubation with secondary antibodies, and sections were mounted on glass slides, allowed to dry, and coverslipped with Fluoromount G mounting medium (Thermo Fisher Scientific) for imaging.
(§2) Confocal Microscopy: Thoracic spinal cord dorsal and ventral column sections, as well as CC were imaged using an Olympus BX61 confocal microscope (Olympus America Inc., Center Valley, Pa.) using a 10× and 40× objective. Z-stack projections were compiled using SlideBook 6 software (Intelligent Imaging Innovations, Inc., Denver, Colo.). Immunostaining was quantified using unbiased stereology (Crawford et al., 2010). All images (RGB) were Confocal converted to grayscale, split, and separated by color channel using imageJ version 2.2.0-rc-46/1.50 g (NIH). To avoid experimenter bias, auto-adjustment of brightness and contrast, as well as threshold of staining signal, was carried out by ImageJ. MBP^+, GFAP^+, CD45^+, Iba1^+, CC1^+, and CXCL1^+, staining intensity was measured as percent area of positive immunoreactivity within the region of interest and intensity of signal determined by ImageJ.
To assess whether IndCl analogues exert similar anti-inflammatory effects, CD45+ leukocyte, ionized calcium-binding adapter molecule 1 (Iba1)+ macrophage/microglia, and GFAP+ astrocytes were assessed in thoracic spinal cord dorsal column sections from normal and EAE mice.

EAE mice [3] = assay: Rotarod behavioral assay in EAE mice
Protocol: Rotarod behavioral assay: Motor behavior was tested up to two times per week for each mouse using a rotarod apparatus (Med Associates, Inc., St. Albans, Vt.). Briefly, animals were placed on a rotating horizontal cylinder for a maximum of 200 seconds. The amount of time the mouse remained walking on the cylinder without falling was recorded. Each mouse was tested on a speed of 3-30 rpm and given three trials for any given day. The three trials were averaged to report a single value for an individual mouse, and averages were then calculated for all animals within a given treatment group (Moore et al., 2014). The first two trial days prior to immunization served as practice trials.
As a complementary assay of motor function, mice were tested on a rotarod device following a previously described protocol (Moore et al., 2014). […] (FIG. 2B).

[4] = system: myelin basic protein (MBP) in thoracic spinal cord ventral column; assay: MBP immunoreactivity in thoracic ventral column white matter of EAE mice; conditions: prophylactic E2 (preEAE), vs vehicle
Protocol: Histological Preparation of Tissues: Mice were deeply anesthetized by isoflurane (Piramal Healthcare) inhalation and perfused transcardially with phosphate buffered saline (PBS), followed by 10% formalin (Thermo Fisher Scientific) to fix tissues. Brains and spinal cords were dissected and post-fixed in 10% formalin (Thermo Fisher Scientific) for 24 hours, then cryoprotected in 30% sucrose (EMD Millipore, Darmstadt, Germany) for 48 hours and embedded in gelatin for sectioning. Embedded brains and spinal cords were then cut into 40-μm coronal sections using an HM525 NX cryostat (Thermo Fisher Scientific). Sections were collected serially and stored in PBS with 1% sodium azide at 4° C. until staining by immunohistochemistry, following a previously described protocol (Crawford et al., 2010; Moore et al., 2014). […]
Confocal Microscopy: Thoracic spinal cord dorsal and ventral column sections, as well as CC were imaged using an Olympus BX61 confocal microscope (Olympus America Inc., Center Valley, Pa.) using a 10× and 40× objective. […] Immunostaining was quantified using unbiased stereology (Crawford et al., 2010). […] MBP^+, GFAP^+, CD45^+, Iba1^+, CC1^+, and CXCL1^+, staining intensity was measured as percent area of positive immunoreactivity within the region of interest and intensity of signal determined by ImageJ. […]

[5] = system: corpus callosum mature OLs (CC1) and MBP; assay: CC1 mature OLs and MBP immunoreactivity in callosal white matter tracts of EAE mice
Description: as §1, §2
To test whether IndCl analogues promote similar gains in mature OL numbers and myelination, callosal white matter tracts were assessed for adenomatous polyposis coli (CC1) and MBP immunoreactivity, respectively. […]

EAE mice [6] = assay: EAE clinical disease score; conditions: prophylactic E2 0.05 mg/kg/d s.c. (preEAE), vs vehicle; 0.05 mg/kg/day
CXCL1 = CXCL1 staining in thoracic ventral column white matter of EAE mice; conditions: vs vehicle
Description: Immunohistochemistry: Before histological staining, 40-μm free floating sections were thoroughly washed with PBS to remove residual sodium azide (Crawford et al., 2010). Sections were permeabilized with 0.3% Triton X-100 in ix PBS and 15% normal goat serum (NGS). […]
Confocal Microscopy: Thoracic spinal cord dorsal and ventral column sections, as well as CC were imaged using an Olympus BX61 confocal microscope (Olympus America Inc., Center Valley, Pa.) using a 10× and 40× objective. […] Immunostaining was quantified using unbiased stereology (Crawford et al., 2010). […] MBP^+, GFAP^+, CD45^+, Iba1^+, CC1^+, and CXCL1^+, staining intensity was measured as percent area of positive immunoreactivity within the region of interest and intensity of signal determined by ImageJ.
Under inflammatory conditions, such as those generated by MS, astrocytes undergo NF-κB-dependent upregulation of CXCL1, which is thought to recruit OPCs to the site of demyelinating injury (Omari et al., 2006; Xue et al., 2014). Thus, having observed that IndCl raised its production by peripheral leukocytes, CXCL1 expression in thoracic ventral column white matter was next evaluated.

[7] = therapeutic treatment (postEAE)
[8] = therapeutic treatment (postEAE), vs vehicle

C[C@]12CC[C@@H]3c4ccc(O)cc4CC[C@H]3[C@@H]1CC[C@@H]2O [E2, 170 estradiol]
CXCL1 production by splenocytes ([1]; prophylactic E2 (preEAE)): no change; also recorded: increased | CXCL10 production by splenocytes ([1]; prophylactic E2 (preEAE)): significantly reduced; also recorded: decreased | IFNγ production by splenocytes ([1]; prophylactic E2 (preEAE)): significantly decreased; also recorded: reduced | IL-2 production by splenocytes ([1]; prophylactic E2 (preEAE)): significantly decreased; also recorded: reduced | IL-6 production by splenocytes ([1]; prophylactic E2 (preEAE)): significantly decreased; also recorded: reduced | IL-17 production by splenocytes ([1]; prophylactic E2 (preEAE)): significantly decreased; also recorded: reduced | Th2 (IL-4, IL-5, IL-13) and IL-10 cytokine production by splenocytes ([1]; prophylactic E2 (preEAE)): Neither prophylactic nor therapeutic E2 significantly altered | CXCL1 production by splenocytes [1, 7]: significant increase; also recorded: increased | CXCL10 production by splenocytes [1, 7]: significantly reduced; also recorded: decreased | IFNγ production by splenocytes [1, 7]: decreasing; also recorded: reduced | IL-6 production by splenocytes [1, 7]: decreasing; also recorded: reduced | IL-17 production by splenocytes [1, 7]: decreasing; also recorded: reduced | Th2 (IL-4, IL-5, IL-13) and IL-10 cytokine production by splenocytes [1, 7]: Neither prophylactic nor therapeutic E2 significantly altered | CD45 fluorescence intensity, spinal cord dorsal column ([2]; prophylactic E2 (preEAE)): significantly decreased; also recorded: reduced | GFAP fluorescence intensity, spinal cord dorsal column ([2]; prophylactic E2 (preEAE)): significantly decreased; also recorded: significantly reduced | Iba1 fluorescence intensity, spinal cord ([2]; prophylactic E2 (preEAE)): significantly decreased; also recorded: suppressed | GFAP fluorescence intensity, spinal cord dorsal column [2, 7]: did modify | Iba1 fluorescence intensity, spinal cord [2, 7]: did not | rotarod performance (motor function) (EAE mice [3]; prophylactic E2 (preEAE)): did not fall off the rotarod within the time allotted | rotarod performance (motor function) (EAE mice [3]; therapeutic s.c. from day 8 (postEAE)): had a tendency to fall from the cylinder abruptly | MBP staining intensity, thoracic spinal cord ventral column [4]: maintained at near normal levels; also recorded: increased | CC1+ mature OL numbers, corpus callosum ([5]; prophylactic E2 (preEAE)): did not show a decrease in CC1 cells | MBP+ staining, corpus callosum ([5]; prophylactic E2 (preEAE)): prevented the EAE-induced decrease in MBP+ staining | CC1+ mature OL numbers, corpus callosum [5, 8]: unable to rescue the decrease in CC1 cells | MBP+ staining, corpus callosum [5, 8]: unable to rescue the decrease in MBP staining intensity | EAE clinical disease course (EAE mice [6]): delayed onset of clinical disease; also recorded: greatly attenuated | CXCL1 staining intensity, thoracic ventral column (CXCL1; prophylactic E2 (preEAE)): no change | CXCL1 staining intensity, thoracic ventral column (CXCL1; [7]): small but significant increase
